Reference: the supplement of paper PMC10849652
Some of the results follow.

The chains behind the UniProt entries cited, without tags or fusion partners. Where a name states a change or a piece, a line headed by the entry shows the natural chain unless it says otherwise.
UniProt Q14980: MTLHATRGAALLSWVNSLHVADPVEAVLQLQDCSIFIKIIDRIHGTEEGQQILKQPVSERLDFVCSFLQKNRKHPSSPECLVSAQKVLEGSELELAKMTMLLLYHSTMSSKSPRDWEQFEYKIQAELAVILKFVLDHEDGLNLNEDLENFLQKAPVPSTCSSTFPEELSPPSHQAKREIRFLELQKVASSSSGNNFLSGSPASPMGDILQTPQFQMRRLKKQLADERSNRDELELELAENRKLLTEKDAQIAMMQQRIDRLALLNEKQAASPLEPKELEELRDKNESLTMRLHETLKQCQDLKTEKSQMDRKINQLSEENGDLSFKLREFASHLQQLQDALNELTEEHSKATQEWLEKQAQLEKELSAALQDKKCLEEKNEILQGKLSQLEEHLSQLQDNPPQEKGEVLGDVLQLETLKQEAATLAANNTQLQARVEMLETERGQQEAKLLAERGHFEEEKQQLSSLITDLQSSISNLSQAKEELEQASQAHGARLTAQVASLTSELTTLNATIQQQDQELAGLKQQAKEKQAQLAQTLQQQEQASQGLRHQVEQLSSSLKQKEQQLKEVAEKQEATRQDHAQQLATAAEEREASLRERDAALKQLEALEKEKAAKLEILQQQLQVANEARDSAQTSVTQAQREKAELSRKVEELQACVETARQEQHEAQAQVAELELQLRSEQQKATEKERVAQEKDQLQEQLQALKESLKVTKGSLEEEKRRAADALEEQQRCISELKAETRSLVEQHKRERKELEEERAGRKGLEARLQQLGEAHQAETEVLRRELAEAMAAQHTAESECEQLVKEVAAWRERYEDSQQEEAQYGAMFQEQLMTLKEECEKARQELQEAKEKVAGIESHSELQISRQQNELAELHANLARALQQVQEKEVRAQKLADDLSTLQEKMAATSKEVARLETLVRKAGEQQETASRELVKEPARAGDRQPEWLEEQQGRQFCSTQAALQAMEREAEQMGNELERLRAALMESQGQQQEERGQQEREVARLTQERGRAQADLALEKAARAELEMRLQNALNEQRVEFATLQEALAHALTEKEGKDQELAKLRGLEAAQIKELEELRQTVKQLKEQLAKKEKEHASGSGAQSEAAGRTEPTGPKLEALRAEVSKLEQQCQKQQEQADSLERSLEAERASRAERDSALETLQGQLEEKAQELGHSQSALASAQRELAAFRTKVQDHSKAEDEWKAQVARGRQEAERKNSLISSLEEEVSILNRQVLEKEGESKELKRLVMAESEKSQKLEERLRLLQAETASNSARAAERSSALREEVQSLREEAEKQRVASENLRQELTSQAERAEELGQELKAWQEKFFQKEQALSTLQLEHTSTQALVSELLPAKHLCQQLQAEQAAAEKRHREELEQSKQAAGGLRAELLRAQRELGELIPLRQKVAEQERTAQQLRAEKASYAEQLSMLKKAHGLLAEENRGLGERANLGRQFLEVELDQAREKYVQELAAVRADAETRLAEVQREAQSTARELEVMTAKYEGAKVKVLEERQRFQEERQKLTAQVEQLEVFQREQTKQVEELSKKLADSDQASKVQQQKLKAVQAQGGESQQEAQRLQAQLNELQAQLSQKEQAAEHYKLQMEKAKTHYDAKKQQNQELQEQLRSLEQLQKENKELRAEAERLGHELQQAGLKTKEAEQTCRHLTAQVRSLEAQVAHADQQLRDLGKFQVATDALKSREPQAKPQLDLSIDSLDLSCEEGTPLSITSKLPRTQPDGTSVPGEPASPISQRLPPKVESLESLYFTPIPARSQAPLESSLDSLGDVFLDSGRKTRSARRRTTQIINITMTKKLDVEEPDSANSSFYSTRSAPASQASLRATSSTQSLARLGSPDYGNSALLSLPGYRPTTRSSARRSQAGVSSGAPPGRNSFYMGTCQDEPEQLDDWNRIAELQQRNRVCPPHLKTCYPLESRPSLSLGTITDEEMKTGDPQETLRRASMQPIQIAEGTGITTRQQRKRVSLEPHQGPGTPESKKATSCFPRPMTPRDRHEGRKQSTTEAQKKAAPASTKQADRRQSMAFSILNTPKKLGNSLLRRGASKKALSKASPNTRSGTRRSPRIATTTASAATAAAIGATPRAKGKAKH
UniProt Q96MF7: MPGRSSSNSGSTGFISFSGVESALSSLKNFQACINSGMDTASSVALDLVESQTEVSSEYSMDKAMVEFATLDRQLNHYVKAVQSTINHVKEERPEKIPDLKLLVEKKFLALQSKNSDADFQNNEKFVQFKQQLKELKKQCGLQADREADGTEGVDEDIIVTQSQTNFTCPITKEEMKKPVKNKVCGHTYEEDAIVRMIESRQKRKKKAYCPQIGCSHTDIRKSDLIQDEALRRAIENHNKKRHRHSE
UniProt Q9NXX6: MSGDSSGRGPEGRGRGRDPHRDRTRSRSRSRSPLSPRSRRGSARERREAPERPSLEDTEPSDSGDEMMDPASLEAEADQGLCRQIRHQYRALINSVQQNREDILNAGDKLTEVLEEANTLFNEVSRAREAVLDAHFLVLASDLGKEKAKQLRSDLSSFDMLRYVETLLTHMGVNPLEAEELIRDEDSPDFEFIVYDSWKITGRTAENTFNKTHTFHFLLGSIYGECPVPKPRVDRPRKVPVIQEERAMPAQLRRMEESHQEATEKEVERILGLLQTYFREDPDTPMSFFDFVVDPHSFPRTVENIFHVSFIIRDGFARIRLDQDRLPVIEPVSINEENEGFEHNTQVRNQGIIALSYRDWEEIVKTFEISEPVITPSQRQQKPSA
UniProt Q8WZ82: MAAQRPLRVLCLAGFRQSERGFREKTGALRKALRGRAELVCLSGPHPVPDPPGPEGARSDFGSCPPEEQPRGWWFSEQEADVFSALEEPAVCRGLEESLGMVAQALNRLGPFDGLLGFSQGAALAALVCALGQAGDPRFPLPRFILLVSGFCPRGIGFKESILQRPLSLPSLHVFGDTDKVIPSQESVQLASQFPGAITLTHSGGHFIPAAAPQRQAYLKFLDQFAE
UniProt Q8N543: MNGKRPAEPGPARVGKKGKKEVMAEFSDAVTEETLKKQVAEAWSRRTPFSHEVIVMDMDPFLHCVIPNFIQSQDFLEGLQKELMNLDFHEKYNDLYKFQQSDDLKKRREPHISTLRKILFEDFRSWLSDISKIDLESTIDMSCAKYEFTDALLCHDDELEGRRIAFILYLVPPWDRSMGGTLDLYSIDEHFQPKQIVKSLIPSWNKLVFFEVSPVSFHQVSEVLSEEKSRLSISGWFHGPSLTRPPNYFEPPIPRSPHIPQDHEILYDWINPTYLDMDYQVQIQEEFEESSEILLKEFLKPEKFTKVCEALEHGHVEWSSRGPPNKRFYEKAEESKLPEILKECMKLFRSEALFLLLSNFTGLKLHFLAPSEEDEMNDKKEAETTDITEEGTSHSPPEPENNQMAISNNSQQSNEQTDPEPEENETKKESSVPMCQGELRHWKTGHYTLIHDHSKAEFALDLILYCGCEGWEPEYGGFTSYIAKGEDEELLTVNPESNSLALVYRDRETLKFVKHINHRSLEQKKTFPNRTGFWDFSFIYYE
UniProt Q12769: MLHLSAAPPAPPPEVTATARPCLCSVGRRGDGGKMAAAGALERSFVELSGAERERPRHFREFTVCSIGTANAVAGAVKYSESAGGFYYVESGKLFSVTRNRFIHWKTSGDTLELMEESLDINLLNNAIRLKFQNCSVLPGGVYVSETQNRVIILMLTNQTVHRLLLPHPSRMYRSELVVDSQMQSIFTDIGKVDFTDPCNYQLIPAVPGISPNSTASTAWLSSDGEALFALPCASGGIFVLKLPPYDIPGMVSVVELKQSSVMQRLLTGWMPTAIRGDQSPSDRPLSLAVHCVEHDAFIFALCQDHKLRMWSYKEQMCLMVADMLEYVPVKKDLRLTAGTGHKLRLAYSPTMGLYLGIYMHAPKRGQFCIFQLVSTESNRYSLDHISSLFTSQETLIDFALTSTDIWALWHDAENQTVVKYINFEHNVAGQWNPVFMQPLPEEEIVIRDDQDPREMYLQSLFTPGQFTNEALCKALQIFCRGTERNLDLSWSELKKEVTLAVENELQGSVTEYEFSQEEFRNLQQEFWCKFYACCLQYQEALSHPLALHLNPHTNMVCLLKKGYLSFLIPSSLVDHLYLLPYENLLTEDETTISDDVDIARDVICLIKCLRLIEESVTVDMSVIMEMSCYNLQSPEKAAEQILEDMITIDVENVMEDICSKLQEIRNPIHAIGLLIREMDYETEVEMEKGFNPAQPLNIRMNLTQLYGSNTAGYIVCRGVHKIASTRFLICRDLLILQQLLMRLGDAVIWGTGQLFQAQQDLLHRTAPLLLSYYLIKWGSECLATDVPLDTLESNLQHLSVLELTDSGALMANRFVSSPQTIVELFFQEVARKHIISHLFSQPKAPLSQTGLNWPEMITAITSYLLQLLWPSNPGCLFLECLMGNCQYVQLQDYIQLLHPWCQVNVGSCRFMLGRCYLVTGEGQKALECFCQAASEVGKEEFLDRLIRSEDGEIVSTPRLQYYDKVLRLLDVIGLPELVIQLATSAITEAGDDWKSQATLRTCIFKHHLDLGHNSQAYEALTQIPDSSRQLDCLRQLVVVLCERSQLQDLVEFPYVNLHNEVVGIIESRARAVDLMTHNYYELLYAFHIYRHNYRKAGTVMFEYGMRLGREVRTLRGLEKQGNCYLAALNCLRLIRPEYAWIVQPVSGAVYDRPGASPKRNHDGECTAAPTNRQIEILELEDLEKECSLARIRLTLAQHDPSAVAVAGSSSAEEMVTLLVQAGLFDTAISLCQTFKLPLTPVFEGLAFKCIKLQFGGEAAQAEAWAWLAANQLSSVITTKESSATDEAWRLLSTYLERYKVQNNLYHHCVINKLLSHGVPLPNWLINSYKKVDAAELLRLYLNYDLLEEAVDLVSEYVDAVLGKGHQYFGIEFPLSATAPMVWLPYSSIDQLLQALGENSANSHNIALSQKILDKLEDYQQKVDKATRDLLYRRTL
UniProt Q8WVJ2: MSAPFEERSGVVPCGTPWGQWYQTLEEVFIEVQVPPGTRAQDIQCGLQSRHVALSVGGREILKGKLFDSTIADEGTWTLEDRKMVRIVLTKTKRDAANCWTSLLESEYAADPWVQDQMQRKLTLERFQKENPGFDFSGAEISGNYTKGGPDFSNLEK
UniProt Q8WV74: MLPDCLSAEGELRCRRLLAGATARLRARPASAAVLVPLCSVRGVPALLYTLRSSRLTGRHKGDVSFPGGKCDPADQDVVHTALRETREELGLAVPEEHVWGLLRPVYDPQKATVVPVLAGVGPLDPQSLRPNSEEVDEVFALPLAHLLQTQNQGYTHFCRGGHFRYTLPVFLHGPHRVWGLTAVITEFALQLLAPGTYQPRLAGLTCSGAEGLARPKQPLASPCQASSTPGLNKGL
UniProt O43913: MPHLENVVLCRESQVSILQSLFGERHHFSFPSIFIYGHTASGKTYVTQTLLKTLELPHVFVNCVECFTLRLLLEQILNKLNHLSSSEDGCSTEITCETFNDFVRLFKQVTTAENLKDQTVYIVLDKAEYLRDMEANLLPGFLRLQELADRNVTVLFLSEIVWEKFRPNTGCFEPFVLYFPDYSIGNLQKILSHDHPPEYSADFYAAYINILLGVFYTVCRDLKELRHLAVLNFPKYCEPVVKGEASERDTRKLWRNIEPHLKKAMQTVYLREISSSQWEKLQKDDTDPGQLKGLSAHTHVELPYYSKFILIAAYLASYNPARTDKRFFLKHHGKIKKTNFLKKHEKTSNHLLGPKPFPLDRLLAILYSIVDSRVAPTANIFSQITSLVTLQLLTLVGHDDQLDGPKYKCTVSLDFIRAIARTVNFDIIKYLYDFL
UniProt P22059, whole entry, looked up: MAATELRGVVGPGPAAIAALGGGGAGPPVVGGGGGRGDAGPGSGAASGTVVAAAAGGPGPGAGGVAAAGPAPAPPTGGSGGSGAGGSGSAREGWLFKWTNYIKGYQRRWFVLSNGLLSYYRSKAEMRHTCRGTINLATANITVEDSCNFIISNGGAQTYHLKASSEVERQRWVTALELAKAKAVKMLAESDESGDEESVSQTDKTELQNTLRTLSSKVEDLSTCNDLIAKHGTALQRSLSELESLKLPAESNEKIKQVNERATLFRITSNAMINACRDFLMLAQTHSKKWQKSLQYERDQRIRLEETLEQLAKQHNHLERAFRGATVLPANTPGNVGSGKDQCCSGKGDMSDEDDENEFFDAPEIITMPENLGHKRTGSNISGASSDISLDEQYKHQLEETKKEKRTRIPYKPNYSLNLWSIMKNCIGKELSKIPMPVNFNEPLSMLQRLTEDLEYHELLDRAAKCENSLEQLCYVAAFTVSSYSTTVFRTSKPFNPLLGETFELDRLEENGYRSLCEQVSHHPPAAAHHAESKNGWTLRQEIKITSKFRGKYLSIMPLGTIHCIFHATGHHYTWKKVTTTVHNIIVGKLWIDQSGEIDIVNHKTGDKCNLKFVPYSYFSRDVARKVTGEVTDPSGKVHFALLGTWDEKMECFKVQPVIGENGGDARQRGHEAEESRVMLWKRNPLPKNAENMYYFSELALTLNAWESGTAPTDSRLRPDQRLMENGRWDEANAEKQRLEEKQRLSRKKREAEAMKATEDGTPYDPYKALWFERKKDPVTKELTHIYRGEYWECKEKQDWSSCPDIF

What was measured:
Experiment in all cases: log2 fold change, soluble protein after heating vs DMSO (PISA); higher = thermal stabilisation; K562 cells, 10 uM, 30 min; active = over 0.2 and 3.5 SD of the protein, either way, in both replicates (recomputed)
[1] = compound: CC[C@@H]1C(=O)N(C)c2cnc(Nc3ccc(C(=O)NC4CCN(C)CC4)cc3OC)nc2N1C1CCCC1
Outline: (§1)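 For each measurement, 10 μM compound was applied for 30 min to K562 cells at 2×10^6 cells/mL. Aliquots were heated for 3 min across 48°C-58°C, pooled, and extracted in PBS with 0.5% NP-40 at 4°C; the supernatant after 21,000xg for 90 min was soluble protein. This was quantified by TMTpro 16plex LC-MS/MS with channel sums equalised, and thermal stability was reported relative to control samples from duplicates, on a log2 fold-change scale.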

volasertib = compound: CC[C@@H]1C(=O)N(C)c2cnc(Nc3ccc(C(=O)N[C@H]4CC[C@H](N5CCN(CC6CC6)CC5)CC4)cc3OC)nc2N1C(C)C [volasertib]
Outline: as §1

[2] = compound: CC[C@H](C)N1C=C(C2=C(C=C(C=C21)C3=CN=C(C=C3)N4CCNCC4)C(=O)NCC5=C(C=C(NC5=O)C)C)C
Outline: as §1

epoxomicin = compound: CC[C@H](C)[C@@H](C(=O)N[C@@H]([C@@H](C)O)C(=O)N[C@@H](CC(C)C)C(=O)[C@]1(CO1)C)NC(=O)[C@H]([C@@H](C)CC)N(C)C(=O)C [epoxomicin]
Outline: as §1

[3] = compound: CCn1cc(-c2ccnc3[nH]c(-c4cccc(CN(C)C)c4)cc23)c(-c2ccc(NC(=O)N(C)C)cc2)n1
Outline: as §1

[4] = compound: CN(C)CC(=O)Nc1ccc2[nH]c(=O)c3ccccc3c2c1
Outline: as §1

[5] = compound: CN1C2=C(C3=C1C(=O)N(N=C3)CC4=CC(=CC=C4)N)SC(=C2)S(=O)C
Outline: as §1

[6] = compound: CN1CCC(CNc2ccc3ncc(-c4cccc(OC(F)(F)F)c4)n3n2)CC1
Outline: as §1

saracatinib = compound: CN1CCN(CCOc2cc(OC3CCOCC3)c3c(Nc4c(Cl)ccc5c4OCO5)ncnc3c2)CC1 [saracatinib]
Outline: as §1

sotrastaurin = compound: CN1CCN(c2nc(C3=C(c4c[nH]c5ccccc45)C(=O)NC3=O)c3ccccc3n2)CC1 [sotrastaurin]
Outline: as §1

Tubastatin A = compound: CN1CCc2c(c3ccccc3n2Cc2ccc(C(=O)NO)cc2)C1 [Tubastatin A]
Outline: as §1

[7] = compound: CNC(=O)C1=CC=CC=C1NC2=NC(=NC=C2Cl)NC3=C(C=C(C=C3)N4CCOCC4)OC
Outline: as §1

defactinib = compound: CNC(=O)c1ccc(Nc2ncc(C(F)(F)F)c(NCc3nccnc3N(C)S(C)(=O)=O)n2)cc1 [defactinib]
Outline: as §1

rucaparib = compound: CNCc1ccc(-c2[nH]c3cc(F)cc4c3c2CCNC4=O)cc1 [rucaparib]
Outline: as §1

[8] = compound: CNc1nc(-c2ccc3c(N)n[nH]c3c2)cc(N2C[C@@H](C(=O)NC3CCCCC3)CC[C@H]2C)n1
Outline: as §1

encorafenib = compound: COC(=O)N[C@@H](C)CNc1nccc(-c2cn(C(C)C)nc2-c2cc(Cl)cc(NS(C)(=O)=O)c2F)n1 [encorafenib]
Outline: as §1

[9] = compound: COC(=O)[C@H](CCSC)NC(=O)C1=C(C=C(C=C1)NC[C@H](CS)N)C2=CC=CC=C2
Outline: as §1

[10] = compound: CCn1c(C(=O)N(C2CC2)C2CC2)cc2c3c(ncn3C)c(Nc3cc(C)n(C)n3)nc21
Outline: as §1

rosiglitazone = compound: CN(CCOC1=CC=C(C=C1)C[C@H]2C(=O)NC(=O)S2)C3=CC=CC=N3 (racemic) [rosiglitazone]
Outline: as §1

alvocidib = compound: CN1CC[C@H](c2c(O)cc(O)c3c(=O)cc(-c4ccccc4Cl)oc23)[C@H](O)C1 [alvocidib]
Outline: as §1

| Target | log2 fold change [1] | log2 fold change (volasertib) | log2 fold change [2] | log2 fold change (epoxomicin) | log2 fold change [3] | log2 fold change [4] | log2 fold change [5] | log2 fold change [6] | log2 fold change (saracatinib) | log2 fold change (sotrastaurin) | log2 fold change (Tubastatin A) | log2 fold change [7] | log2 fold change (defactinib) | log2 fold change (rucaparib) | log2 fold change [8] | log2 fold change (encorafenib) | log2 fold change [9] | log2 fold change [10] | log2 fold change (rosiglitazone) | log2 fold change (alvocidib) |
| --- | --- | --- | --- | --- | --- | --- | --- | --- | --- | --- | --- | --- | --- | --- | --- | --- | --- | --- | --- | --- |
| NUMA1 (UniProt Q14980) | inactive: 0.065 | inactive: 0.034 | inactive: 0.039 | inactive: -0.044 | inactive: 0.068 | inactive: 0.003 | inactive: 0.115 | inactive: -0.191 | inactive: -0.069 | inactive: -0.235 | inactive: 0.14 | inactive: -0.057 | inactive: -0.017 | inactive: 0.118 | inactive: 0.055 | inactive: 0.174 | inactive: -0.009 | – | – | – |
| OXR1 (UniProt Q8N573) | inactive: -0.052 | inactive: -0.071 | inactive: 0.035 | inactive: -0.013 | inactive: 0.026 | inactive: 0.062 | inactive: -0.033 | active: -0.257 | inactive: -0.039 | inactive: -0.049 | inactive: 0.008 | inactive: -0.038 | inactive: -0.059 | inactive: -0.014 | inactive: -0.063 | inactive: 0 | inactive: 0.003 | – | – | – |
| NUP205 (UniProt Q92621) | inactive: -0.108 | active: -0.35 | inactive: 0.079 | inactive: -0.071 | inactive: -0.013 | inactive: 0.032 | inactive: -0.041 | active: -0.233 | inactive: -0.003 | inactive: -0.057 | inactive: 0.023 | inactive: -0.024 | inactive: -0.132 | inactive: -0.065 | inactive: -0.012 | inactive: 0.096 | inactive: -0.038 | – | – | – |
| OGFR (UniProt Q9NZT2) | inactive: 0.026 | inactive: -0.103 | inactive: 0.167 | inactive: -0.076 | inactive: -0.041 | inactive: 0.142 | inactive: -0.027 | inactive: -0.134 | inactive: -0.044 | inactive: -0.146 | inactive: 0.089 | inactive: -0.028 | inactive: -0.094 | inactive: 0.132 | inactive: 0.009 | inactive: 0.031 | inactive: -0.154 | – | – | – |
| NSMCE2 (UniProt Q96MF7) | inactive: 0.072 | inactive: -0.032 | inactive: -0.003 | inactive: -0.089 | inactive: 0.079 | inactive: -0.007 | inactive: 0.059 | active: 0.397 | inactive: -0.019 | inactive: -0.095 | inactive: 0 | inactive: 0.031 | inactive: -0.06 | inactive: 0.076 | inactive: -0.076 | inactive: -0.001 | inactive: 0.025 | – | – | – |
| OXA1L (UniProt Q15070) | inactive: -0.067 | inactive: -0.014 | inactive: -0.015 | inactive: -0.046 | inactive: -0.012 | inactive: -0.019 | inactive: -0.027 | active: -0.221 | inactive: 0.018 | inactive: 0.003 | inactive: -0.036 | inactive: 0.004 | inactive: 0.005 | inactive: -0.029 | inactive: -0.054 | inactive: -0.027 | inactive: 0.031 | – | – | – |
| NSMCE4A (UniProt Q9NXX6) | inactive: 0.069 | inactive: 0.053 | inactive: 0.103 | inactive: -0.02 | inactive: -0.251 | inactive: -0.13 | inactive: -0.33 | inactive: -0.009 | inactive: 0.109 | inactive: 0.015 | inactive: 0.05 | inactive: -0.112 | inactive: -0.086 | inactive: 0 | inactive: -0.114 | inactive: -0.064 | inactive: -0.002 | – | – | – |
| OVCA2 (UniProt Q8WZ82) | inactive: -0.352 | inactive: -0.47 | inactive: 0.083 | – | inactive: 0.086 | – | – | inactive: -0.116 | – | – | – | – | – | inactive: 0.116 | – | inactive: -0.052 | – | – | – | – |
| OGFOD1 (UniProt Q8N543) | inactive: 0.049 | inactive: 0.038 | inactive: -0.025 | inactive: 0.042 | inactive: -0.013 | inactive: -0.022 | inactive: -0.022 | inactive: -0.051 | inactive: 0.007 | inactive: 0.024 | inactive: -0.163 | inactive: 0.012 | inactive: -0.027 | inactive: -0.051 | inactive: -0.028 | inactive: -0.028 | inactive: 0.041 | – | – | – |
| NUDT6 (UniProt P53370) | inactive: 0.177 | inactive: 0.041 | inactive: -0.289 | inactive: 0.031 | – | inactive: -0.055 | inactive: -0.132 | – | inactive: 0.063 | – | inactive: 0.098 | inactive: 0.014 | inactive: 0.066 | inactive: -0.38 | inactive: -0.023 | inactive: -0.024 | inactive: -0.087 | – | – | – |
| NUP107 (UniProt P57740) | inactive: 0.038 | inactive: -0.182 | inactive: 0.106 | inactive: -0.053 | inactive: 0.169 | inactive: -0.048 | inactive: 0.053 | active: 0.628 | inactive: -0.017 | inactive: -0.103 | inactive: 0.067 | inactive: 0.023 | inactive: -0.081 | inactive: 0.041 | inactive: 0.02 | inactive: 0.111 | inactive: 0 | – | – | – |
| OXSR1 (UniProt O95747) | inactive: -0.122 | active: -0.274 | inactive: 0.049 | inactive: 0.03 | inactive: -0.077 | inactive: 0.043 | inactive: 0.008 | active: -0.24 | inactive: -0.048 | inactive: 0.004 | inactive: 0.038 | inactive: -0.061 | inactive: -0.093 | inactive: 0.001 | inactive: 0.033 | inactive: 0.042 | inactive: -0.051 | – | – | – |
| NUP160 (UniProt Q12769) | inactive: -0.109 | active: -0.62 | inactive: 0.005 | inactive: -0.049 | inactive: 0.04 | inactive: 0.007 | inactive: -0.033 | inactive: 0.014 | inactive: 0.155 | inactive: -0.141 | inactive: 0 | inactive: 0.004 | inactive: -0.11 | inactive: 0.019 | inactive: -0.018 | inactive: 0.038 | inactive: 0.003 | – | – | – |
| NUDCD2 (UniProt Q8WVJ2) | inactive: -0.177 | active: -0.566 | inactive: 0.056 | inactive: -0.098 | inactive: 0.021 | inactive: 0.081 | inactive: 0.023 | inactive: -0.291 | inactive: -0.115 | inactive: -0.123 | inactive: 0.051 | inactive: 0.002 | inactive: -0.256 | inactive: -0.053 | inactive: 0 | inactive: 0.048 | inactive: 0 | – | – | – |
| OCIAD1 (UniProt D6RDK6) | inactive: 0.236 | inactive: 0.126 | – | inactive: -0.148 | inactive: 0.195 | inactive: -0.056 | inactive: 0.006 | inactive: -0.049 | inactive: 0 | inactive: 0.055 | inactive: -0.051 | inactive: -0.111 | inactive: 0.008 | inactive: -0.311 | inactive: -0.136 | inactive: 0.121 | inactive: 0.101 | inactive: 0.071 | inactive: 0.057 | inactive: 0.059 |
| NUDT8 (UniProt Q8WV74) | inactive: -0.373 | inactive: 0.015 | inactive: 0.027 | – | – | inactive: -0.01 | inactive: -0.119 | – | inactive: 0.139 | inactive: 0.078 | inactive: 0.07 | inactive: -0.014 | inactive: 0.031 | inactive: -0.101 | inactive: 0.003 | inactive: 0.354 | inactive: 0.071 | inactive: 0.067 | inactive: 0.049 | inactive: -0.086 |
| ORC5 (UniProt O43913) | inactive: -0.196 | inactive: -0.42 | inactive: 0.074 | – | inactive: -0.103 | inactive: 0.105 | inactive: -0.029 | inactive: -0.203 | inactive: -0.081 | inactive: 0.149 | inactive: 0.093 | inactive: -0.097 | inactive: -0.182 | inactive: 0.094 | inactive: -0.009 | inactive: 0.033 | inactive: -0.05 | – | – | – |
| OBSCN (UniProt A6NGQ3) | inactive: -0.113 | inactive: 0.038 | inactive: -0.065 | – | – | – | – | – | – | inactive: 0.128 | inactive: 0 | – | – | inactive: 0.061 | – | inactive: 0.052 | – | – | inactive: 0.162 | inactive: 0.073 |
| OSBP (UniProt P22059) | inactive: 0.056 | active: 0.377 | inactive: 0.032 | inactive: 0.053 | inactive: -0.087 | inactive: 0.013 | inactive: -0.064 | inactive: 0.061 | inactive: -0.051 | inactive: -0.147 | inactive: 0.037 | inactive: 0.062 | inactive: -0.066 | inactive: -0.11 | inactive: 0.062 | inactive: -0.006 | inactive: -0.001 | – | – | – |

Quoted from the results shown for reference:

| Target | log2 fold change [1] | log2 fold change (volasertib) | log2 fold change [2] | log2 fold change (epoxomicin) | log2 fold change [3] | log2 fold change [4] | log2 fold change [5] | log2 fold change [6] | log2 fold change (saracatinib) | log2 fold change (sotrastaurin) | log2 fold change (Tubastatin A) | log2 fold change [7] | log2 fold change (defactinib) | log2 fold change (rucaparib) | log2 fold change [8] | log2 fold change (encorafenib) | log2 fold change [9] | log2 fold change [10] | log2 fold change (rosiglitazone) | log2 fold change (alvocidib) |
| --- | --- | --- | --- | --- | --- | --- | --- | --- | --- | --- | --- | --- | --- | --- | --- | --- | --- | --- | --- | --- |
| ORC5 (UniProt O43913) | inactive: -0.196 | inactive: -0.42 | inactive: 0.074 | – | inactive: -0.103 | inactive: 0.105 | inactive: -0.029 | inactive: -0.203 | inactive: -0.081 | inactive: 0.149 | inactive: 0.093 | inactive: -0.097 | inactive: -0.182 | inactive: 0.094 | inactive: -0.009 | inactive: 0.033 | inactive: -0.05 | – | – | – |
| OBSCN (UniProt A6NGQ3) | inactive: -0.113 | inactive: 0.038 | inactive: -0.065 | – | – | – | – | – | – | inactive: 0.128 | inactive: 0 | – | – | inactive: 0.061 | – | inactive: 0.052 | – | – | inactive: 0.162 | inactive: 0.073 |
| OSBP (UniProt P22059) | inactive: 0.056 | active: 0.377 | inactive: 0.032 | inactive: 0.053 | inactive: -0.087 | inactive: 0.013 | inactive: -0.064 | inactive: 0.061 | inactive: -0.051 | inactive: -0.147 | inactive: 0.037 | inactive: 0.062 | inactive: -0.066 | inactive: -0.11 | inactive: 0.062 | inactive: -0.006 | inactive: -0.001 | – | – | – |
